# From patent US20210401931A1 (MAYO FOUNDATION FOR MEDICAL EDUCATION AND RESEARCH, published 2021)
# T1: retinoblastoma protein RB (endogenous) (human, UniProt P06400 2-928)
# T1 construct: Endogenous protein of cell lysates, phosphorylation state as in the cells; also called RB1; endogenous RB
# T1 sequence (looked up): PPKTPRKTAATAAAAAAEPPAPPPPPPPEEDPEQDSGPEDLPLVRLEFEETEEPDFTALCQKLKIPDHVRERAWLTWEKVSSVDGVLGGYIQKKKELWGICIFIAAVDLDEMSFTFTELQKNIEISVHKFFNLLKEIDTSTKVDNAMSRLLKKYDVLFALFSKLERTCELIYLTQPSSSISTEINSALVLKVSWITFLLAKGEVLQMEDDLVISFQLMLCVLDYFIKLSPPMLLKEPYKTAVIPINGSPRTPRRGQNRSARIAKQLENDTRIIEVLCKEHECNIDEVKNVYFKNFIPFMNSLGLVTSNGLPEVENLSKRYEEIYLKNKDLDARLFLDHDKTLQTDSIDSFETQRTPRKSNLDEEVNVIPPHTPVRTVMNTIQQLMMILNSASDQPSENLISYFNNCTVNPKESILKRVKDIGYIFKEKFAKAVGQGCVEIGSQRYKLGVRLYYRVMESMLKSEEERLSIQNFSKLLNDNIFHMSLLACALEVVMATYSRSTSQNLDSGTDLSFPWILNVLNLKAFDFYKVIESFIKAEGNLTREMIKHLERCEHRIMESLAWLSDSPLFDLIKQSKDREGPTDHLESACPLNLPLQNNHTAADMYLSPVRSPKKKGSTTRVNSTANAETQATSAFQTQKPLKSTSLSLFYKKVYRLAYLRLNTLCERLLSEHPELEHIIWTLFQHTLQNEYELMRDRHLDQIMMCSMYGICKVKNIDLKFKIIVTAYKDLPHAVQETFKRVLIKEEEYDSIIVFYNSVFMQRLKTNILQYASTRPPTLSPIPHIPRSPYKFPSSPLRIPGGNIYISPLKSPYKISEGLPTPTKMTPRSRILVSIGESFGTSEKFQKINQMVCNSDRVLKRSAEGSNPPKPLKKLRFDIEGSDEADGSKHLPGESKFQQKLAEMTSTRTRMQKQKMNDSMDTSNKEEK
# T2: HA-RB wild-type (pCMV HA hRB-wt) (human, UniProt P06400 1-928)
# T2 construct: Ectopically expressed in DU145 or PC-3 cells; also called wild-type RB; not shown: HA tag
# T2 sequence (looked up): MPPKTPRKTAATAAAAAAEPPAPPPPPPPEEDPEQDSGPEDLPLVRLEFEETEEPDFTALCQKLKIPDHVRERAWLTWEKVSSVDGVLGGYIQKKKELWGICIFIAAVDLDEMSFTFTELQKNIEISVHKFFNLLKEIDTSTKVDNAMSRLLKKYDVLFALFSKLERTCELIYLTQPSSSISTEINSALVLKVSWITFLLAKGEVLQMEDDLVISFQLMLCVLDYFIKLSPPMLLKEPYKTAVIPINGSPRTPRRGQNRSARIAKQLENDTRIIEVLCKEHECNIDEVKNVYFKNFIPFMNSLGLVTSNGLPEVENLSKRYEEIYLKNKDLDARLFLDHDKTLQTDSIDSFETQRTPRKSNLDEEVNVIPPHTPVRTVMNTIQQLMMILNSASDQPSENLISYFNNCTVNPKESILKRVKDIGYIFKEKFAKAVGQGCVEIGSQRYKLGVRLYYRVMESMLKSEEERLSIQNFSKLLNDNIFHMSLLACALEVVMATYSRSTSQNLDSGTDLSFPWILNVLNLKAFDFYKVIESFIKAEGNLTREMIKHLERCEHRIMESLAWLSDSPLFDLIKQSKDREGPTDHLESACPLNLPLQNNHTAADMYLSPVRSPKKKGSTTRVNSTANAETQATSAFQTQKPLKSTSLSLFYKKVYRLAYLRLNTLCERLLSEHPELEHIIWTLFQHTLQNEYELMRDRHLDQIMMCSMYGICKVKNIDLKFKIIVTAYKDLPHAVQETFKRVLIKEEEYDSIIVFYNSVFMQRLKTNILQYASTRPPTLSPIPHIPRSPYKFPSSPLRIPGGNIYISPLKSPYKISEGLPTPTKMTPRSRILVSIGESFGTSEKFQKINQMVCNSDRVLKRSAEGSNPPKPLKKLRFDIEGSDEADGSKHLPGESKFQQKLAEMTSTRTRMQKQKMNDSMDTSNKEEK
# B1: E2F1 (other, human, UniProt Q01094 1-437, looked up)
# chain: MALAGAPAGGPCAPALEALLGAGALRLLDSSQIVIISAAQDASAPPAPTGPAAPAAGPCDPDLLLFATPQAPRPTPSAPRPALGRPPVKRRLDLETDHQYLAESSGPARGRGRHPGKGVKSPGEKSRYETSLNLTTKRFLELLSHSADGVVDLNWAAEVLKVQKRRIYDITNVLEGIQLIAKKSKNHIQWLGSHTTVGVGGRLEGLTQDLRQLQESEQQLDHLMNICTTQLRLLSEDTDSQRLAYVTCQDLRSIADPAEQMVMVIKAPPETQLQAVDSSENFQISLKSKQGPIDVFLCPEETVGGISPGKTPSQEVTSEEENRATDSATIVSPPPSSPPSSLTTDPSQSLLSLEQEPLLSRMGSLRAPVDEDRLSPLVAADSLLEHVREDFSGLLPEEFISLSPPHEALDYHFGLEEGEGIRDLFDCDFGDLTPLDF
# What was measured:
# [1] = target: T1, retinoblastoma protein RB (endogenous); assay: co-IP from PC-3 cells with or without palbociclib (5 µM, 24 hours) (FIG. 2F)
# [2] = target: T2, HA-RB wild-type (pCMV HA hRB-wt); assay: co-IP from transfected DU145 cells, western blot (FIG. 2E)
binder,measurement,setting,value
B1,binding result,[1],binds
same,binding result,[2],binds
